Results on five substances are retold here after doi:10.1101/2025.10.13.682235.

The chains behind the UniProt entries cited, without tags or fusion partners.
UniProt P10826: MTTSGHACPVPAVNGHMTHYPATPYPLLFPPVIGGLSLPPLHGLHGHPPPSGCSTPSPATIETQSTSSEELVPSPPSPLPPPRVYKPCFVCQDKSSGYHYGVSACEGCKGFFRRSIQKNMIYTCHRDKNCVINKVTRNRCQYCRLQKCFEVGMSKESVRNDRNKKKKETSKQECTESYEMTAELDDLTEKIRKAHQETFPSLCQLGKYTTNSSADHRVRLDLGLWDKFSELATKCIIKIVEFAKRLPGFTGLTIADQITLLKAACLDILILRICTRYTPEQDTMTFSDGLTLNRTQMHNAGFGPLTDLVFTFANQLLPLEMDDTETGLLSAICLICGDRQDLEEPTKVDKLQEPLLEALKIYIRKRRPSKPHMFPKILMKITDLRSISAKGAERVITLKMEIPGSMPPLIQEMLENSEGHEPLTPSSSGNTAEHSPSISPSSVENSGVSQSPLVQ
UniProt P10276: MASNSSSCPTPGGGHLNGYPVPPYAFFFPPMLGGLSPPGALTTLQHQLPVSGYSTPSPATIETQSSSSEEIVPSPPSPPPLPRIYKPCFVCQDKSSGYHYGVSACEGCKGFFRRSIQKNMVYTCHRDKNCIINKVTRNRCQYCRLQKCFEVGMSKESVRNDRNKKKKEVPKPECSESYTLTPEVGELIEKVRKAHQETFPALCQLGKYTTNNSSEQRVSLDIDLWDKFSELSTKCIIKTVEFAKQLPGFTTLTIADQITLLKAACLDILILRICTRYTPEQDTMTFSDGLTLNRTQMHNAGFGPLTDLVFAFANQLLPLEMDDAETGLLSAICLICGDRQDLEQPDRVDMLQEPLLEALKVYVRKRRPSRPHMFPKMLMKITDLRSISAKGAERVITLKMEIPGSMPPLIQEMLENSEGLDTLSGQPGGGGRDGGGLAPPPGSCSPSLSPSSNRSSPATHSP
UniProt Q92769: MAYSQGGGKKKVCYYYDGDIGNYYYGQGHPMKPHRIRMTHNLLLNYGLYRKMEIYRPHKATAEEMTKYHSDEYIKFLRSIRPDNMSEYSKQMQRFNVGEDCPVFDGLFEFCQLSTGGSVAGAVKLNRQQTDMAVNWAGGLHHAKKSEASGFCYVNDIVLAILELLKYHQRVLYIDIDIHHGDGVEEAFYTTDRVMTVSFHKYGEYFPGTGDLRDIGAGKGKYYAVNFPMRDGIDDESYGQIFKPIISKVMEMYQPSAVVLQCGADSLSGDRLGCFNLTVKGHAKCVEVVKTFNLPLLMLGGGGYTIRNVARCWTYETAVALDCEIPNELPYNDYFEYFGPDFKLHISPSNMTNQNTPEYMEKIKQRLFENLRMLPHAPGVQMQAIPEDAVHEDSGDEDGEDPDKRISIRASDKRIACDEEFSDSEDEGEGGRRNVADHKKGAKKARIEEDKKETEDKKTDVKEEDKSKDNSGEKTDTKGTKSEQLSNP
UniProt Q15596: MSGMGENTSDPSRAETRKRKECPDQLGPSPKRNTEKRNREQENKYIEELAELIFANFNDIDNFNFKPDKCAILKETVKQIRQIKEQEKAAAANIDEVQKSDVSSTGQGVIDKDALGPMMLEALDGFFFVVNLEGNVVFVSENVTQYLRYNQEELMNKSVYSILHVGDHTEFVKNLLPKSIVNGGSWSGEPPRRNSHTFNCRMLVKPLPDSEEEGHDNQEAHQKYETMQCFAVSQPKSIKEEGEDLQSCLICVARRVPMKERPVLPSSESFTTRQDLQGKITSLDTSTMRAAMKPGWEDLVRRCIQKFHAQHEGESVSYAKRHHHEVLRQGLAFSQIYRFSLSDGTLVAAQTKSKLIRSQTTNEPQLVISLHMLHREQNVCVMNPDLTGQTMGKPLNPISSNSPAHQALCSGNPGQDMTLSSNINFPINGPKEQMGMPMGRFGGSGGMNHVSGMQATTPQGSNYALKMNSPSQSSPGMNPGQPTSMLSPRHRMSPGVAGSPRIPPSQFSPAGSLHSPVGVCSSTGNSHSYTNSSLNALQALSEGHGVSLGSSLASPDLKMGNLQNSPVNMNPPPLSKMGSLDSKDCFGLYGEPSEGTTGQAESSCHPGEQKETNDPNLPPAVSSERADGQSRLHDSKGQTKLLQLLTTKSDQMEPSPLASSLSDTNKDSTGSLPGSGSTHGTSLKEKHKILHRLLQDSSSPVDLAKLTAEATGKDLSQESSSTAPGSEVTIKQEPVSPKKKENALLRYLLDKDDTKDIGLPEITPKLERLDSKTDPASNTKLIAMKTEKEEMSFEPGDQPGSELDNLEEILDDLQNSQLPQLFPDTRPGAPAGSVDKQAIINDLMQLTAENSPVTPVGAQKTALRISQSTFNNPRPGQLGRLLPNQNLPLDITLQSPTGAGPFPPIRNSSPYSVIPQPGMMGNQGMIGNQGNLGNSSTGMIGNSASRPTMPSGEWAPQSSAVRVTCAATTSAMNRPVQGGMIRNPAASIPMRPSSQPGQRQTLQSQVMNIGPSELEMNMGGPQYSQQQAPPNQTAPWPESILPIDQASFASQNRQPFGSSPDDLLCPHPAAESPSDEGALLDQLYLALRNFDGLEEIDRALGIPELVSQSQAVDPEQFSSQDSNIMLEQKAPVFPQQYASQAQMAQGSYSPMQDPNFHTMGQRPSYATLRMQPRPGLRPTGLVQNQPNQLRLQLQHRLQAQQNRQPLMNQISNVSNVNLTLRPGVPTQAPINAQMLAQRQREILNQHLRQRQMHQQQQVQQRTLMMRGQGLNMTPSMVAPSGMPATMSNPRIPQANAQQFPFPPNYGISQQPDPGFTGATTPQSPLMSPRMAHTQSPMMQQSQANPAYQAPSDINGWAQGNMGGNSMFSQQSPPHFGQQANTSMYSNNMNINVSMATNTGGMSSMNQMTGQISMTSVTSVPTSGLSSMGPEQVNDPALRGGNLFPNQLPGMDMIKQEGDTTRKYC
UniProt P28702: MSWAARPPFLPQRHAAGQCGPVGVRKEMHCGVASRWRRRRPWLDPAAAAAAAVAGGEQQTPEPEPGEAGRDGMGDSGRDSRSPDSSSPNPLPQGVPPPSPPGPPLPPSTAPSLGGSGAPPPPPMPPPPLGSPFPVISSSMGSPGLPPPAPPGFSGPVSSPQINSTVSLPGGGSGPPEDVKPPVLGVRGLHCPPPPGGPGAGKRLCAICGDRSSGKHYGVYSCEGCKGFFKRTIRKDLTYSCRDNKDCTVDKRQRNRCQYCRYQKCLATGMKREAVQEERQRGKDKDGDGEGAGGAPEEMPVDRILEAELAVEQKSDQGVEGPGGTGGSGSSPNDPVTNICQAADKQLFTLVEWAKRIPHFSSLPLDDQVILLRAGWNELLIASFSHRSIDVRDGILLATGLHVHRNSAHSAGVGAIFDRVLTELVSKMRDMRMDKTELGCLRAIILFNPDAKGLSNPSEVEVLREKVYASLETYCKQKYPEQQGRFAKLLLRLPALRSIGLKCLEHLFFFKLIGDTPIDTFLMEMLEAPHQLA
UniProt Q09472: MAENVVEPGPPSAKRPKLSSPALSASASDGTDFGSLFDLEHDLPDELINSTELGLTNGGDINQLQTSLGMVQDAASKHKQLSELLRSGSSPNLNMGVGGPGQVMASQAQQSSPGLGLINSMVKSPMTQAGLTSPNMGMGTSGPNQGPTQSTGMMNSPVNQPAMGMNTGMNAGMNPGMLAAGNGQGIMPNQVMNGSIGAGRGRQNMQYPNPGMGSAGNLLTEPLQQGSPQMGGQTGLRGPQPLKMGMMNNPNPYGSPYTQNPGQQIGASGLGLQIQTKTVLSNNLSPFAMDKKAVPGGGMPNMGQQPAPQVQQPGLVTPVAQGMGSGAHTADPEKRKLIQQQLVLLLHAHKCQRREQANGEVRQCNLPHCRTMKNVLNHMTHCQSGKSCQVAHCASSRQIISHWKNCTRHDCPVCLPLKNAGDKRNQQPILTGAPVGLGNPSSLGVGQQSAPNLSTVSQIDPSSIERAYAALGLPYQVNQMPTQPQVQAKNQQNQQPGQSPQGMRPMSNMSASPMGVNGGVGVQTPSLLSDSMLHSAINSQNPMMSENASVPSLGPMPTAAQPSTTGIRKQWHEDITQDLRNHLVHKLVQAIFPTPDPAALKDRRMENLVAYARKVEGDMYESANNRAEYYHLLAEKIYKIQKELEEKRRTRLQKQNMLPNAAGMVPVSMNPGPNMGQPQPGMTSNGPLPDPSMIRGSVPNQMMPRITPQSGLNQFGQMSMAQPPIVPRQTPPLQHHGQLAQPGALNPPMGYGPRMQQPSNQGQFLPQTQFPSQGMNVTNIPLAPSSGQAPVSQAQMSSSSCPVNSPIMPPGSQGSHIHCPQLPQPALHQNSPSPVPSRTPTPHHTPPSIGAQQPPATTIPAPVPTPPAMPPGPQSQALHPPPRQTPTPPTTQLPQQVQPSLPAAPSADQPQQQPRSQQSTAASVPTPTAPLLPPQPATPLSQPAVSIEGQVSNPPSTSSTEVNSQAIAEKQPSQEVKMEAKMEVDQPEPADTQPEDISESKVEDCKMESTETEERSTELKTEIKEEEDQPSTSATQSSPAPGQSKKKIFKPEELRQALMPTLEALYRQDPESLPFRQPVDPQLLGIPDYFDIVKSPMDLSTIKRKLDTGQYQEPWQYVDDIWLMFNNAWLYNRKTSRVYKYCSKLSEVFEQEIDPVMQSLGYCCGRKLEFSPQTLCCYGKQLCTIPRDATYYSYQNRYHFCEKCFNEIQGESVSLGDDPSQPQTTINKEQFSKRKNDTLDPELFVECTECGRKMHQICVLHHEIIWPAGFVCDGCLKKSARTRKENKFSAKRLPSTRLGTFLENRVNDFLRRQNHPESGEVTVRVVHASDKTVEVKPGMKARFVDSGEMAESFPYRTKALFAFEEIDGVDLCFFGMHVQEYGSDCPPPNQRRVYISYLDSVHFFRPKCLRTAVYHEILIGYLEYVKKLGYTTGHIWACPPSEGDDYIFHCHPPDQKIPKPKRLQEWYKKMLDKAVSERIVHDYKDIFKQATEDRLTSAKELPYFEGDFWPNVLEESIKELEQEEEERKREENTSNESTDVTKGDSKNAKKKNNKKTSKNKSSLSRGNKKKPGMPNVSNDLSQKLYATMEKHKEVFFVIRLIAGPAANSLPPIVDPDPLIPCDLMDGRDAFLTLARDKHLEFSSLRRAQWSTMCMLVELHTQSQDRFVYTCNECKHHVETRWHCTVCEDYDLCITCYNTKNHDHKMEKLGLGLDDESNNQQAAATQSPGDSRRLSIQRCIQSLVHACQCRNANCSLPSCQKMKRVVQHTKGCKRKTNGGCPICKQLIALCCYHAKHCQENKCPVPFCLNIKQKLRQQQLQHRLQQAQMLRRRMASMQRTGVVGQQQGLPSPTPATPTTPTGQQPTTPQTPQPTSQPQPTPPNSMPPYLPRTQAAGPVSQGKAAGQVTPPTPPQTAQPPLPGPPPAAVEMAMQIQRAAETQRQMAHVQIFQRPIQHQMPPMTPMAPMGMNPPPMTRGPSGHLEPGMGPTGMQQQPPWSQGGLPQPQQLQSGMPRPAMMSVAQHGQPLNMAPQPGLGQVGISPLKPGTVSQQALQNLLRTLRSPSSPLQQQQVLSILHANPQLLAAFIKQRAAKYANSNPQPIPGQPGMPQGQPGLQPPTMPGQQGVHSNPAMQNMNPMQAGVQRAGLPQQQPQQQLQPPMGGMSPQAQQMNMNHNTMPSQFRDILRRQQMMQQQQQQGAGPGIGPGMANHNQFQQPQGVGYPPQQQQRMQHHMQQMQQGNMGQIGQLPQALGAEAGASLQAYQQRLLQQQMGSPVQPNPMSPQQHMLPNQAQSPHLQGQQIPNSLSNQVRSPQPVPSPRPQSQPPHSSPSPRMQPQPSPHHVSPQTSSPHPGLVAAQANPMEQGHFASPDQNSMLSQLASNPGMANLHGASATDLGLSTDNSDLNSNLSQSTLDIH

In experiment [1] the target is Flag-tagged retinoic acid receptor beta (Flag-RARβ) (UniProt P10826). As to the kind of experiment: affinity purification with mass spectrometry; Flag-RARα, Flag-RARβ or Flag-mock purified from extracts of stable HEK293T cells on anti-FLAG M2 affinity gel (overnight, 4 °C), washes with BC500 (0.5 M KCl) and BC150, elution with FLAG peptide; eluates analysed by LC-MS/MS against mock, n=2.

Experiment [2] concerns the target Flag-tagged retinoic acid receptor alpha (Flag-RARα) (UniProt P10276). The experiment is described as above.

These are yes or no findings as the source states them, for the method shown. Binding seen in cells or lysates may run through a third protein. These calls come from enrichment with a bait or labelling near it, and not all partners need be listed.

On to “Histone deacetylase HDAC2, endogenous in HEK293T (from UniProt Q92769 1-488) (enzyme)”, for which the binding result in experiment [1] and in experiment [2] was “binds” each time.

In the case of “NCOA2, endogenous in HEK293T (from UniProt Q15596 1-1464)”, in experiment [1], the binding entry is reported as “binds”.

Take “NCOA3, endogenous in HEK293T (from UniProt Q9Y6Q9 1-1424)”: in experiment [1], the binding entry is “binds”.

On to “RXRβ, endogenous in HEK293T (from UniProt P28702 1-533) (receptor)”, for which the binding result in experiment [1] and in experiment [2] was “binds” throughout.

As to “Transcriptional coactivator P300, endogenous in HEK293T (from UniProt Q09472 1-2414) (enzyme)”, the binding entry in experiment [1] and in experiment [2] was “binds” in each case.
